# Data from article PMC12431657, “Discovery and mechanistic insights of dibenzoylmethane as a broad spectrum inhibitor of coronavirus” (PLOS Pathogens, 2025).
# Counter-ions that a name gives are not always drawn. Like-named read-outs stand apart in the source and are kept apart here. Hit rate of the full screen: of about 3,300 compounds, about 95 (3%) showed an effect of 50% or more. The list shows a part of the results. Peptide text beside a SMILES is read from it.
# Test system: HCoV-229E
# Design: species or system Huh-7; HTS, protection from HCoV-229E induced cell death, luminescent cell viability (CellCounting-Lite 2.0), inhibition rate
# Conditions: 24 h post infection, 1 h compound pre-incubation, 10 µM, inhibitor
SMILES,229E Inhibition rate,"229E Inhibition rate (229E Inhibition rate, 24 h)"
O=C[C@H](O)[C@@H](O)[C@H](O)[C@H](O)CO[C@H]1O[C@H](CO[C@H]2O[C@H](CO)[C@H](O)[C@H](O)[C@H]2O)[C@H](O)[C@H](O)[C@H]1O [Manninotriose],13%,
CC(=O)Oc1ccccc1 [Phenyl acetate],16.6%,
CN(CC(=O)O)C(=N)N [Creatine],7.6%,
CC(=O)OC(C)(C)CCC(=O)[C@](C)(O)[C@H]1[C@H](O)C[C@@]2(C)[C@@H]3CC=C4[C@@H](C[C@H](O)[C@@H](O)C4(C)C)[C@]3(C)C(=O)C[C@]12C [Cucurbitacin IIa],46.7%,
Cn1cnc2c(ncn2[C@@H]2O[C@H](CO)[C@@H](O)[C@H]2O)c1=O [1-Methylinosine],4.7%,
Cc1ncc(C[n+]2csc(CCOP(=O)(O)OP(=O)(O)O)c2C)c(N)n1 [Thiamine pyrophosphate],8.2%,
CCOC(=O)/C=C/C(=O)OCC [Diethyl fumarate],7.4%,
COc1ccc(C[C@H]2COC(=O)[C@]2(O)Cc2ccc(O[C@@H]3O[C@H](CO)[C@@H](O)[C@H](O)[C@H]3O)c(OC)c2)cc1OC [Tracheloside],10.6%,
CCCCCCCCCC=O [Decyl aldehyde],5.4%,
COc1ccc(/C=C/C(=O)/C=C(O)/C=C/c2ccc(OC)c(OC)c2)cc1OC [Dimethylcurcumin],5.2%,
COn1cc(CC#N)c2ccccc21 [Caulilexin C],14.2%,
O=c1oc2c(O)c(O)cc3c(=O)oc4c(O)c(O)cc1c4c23 [Ellagic acid],5.6%,
"O=c1ccc2c(O)cc(O)cc2o1 [5,7-Dihydroxycoumarin]",12%,
NC(=O)NCCC[C@H](N)C(=O)O [L-Citrulline],7.9%,
CO[C@@H]1[C@@H](O[C@@H]2O[C@H](C)[C@@H](O[C@H]3C[C@@](C)(O)[C@@H](OC(=O)CC(C)C)[C@H](C)O3)[C@H](N(C)C)[C@H]2O)[C@@H](CC=O)C[C@@H](C)[C@@H](O)/C=C/C=C/C[C@@H](C)OC(=O)C[C@H]1OC(C)=O [Josamycin],25.8%,
CC(C)=CCc1cc2c(=O)cc(-c3ccc(O)cc3)oc2cc1O [Licoflavone A],41.2%,
CSCC[C@H](NC(=O)[C@H](Cc1ccccc1)NC(=O)[C@H](Cc1cnc[nH]1)NC(=O)CNC(=O)[C@@H](NC(=O)[C@H](C)NC(=O)[C@H](Cc1c[nH]c2ccccc12)NC(=O)[C@H](CCC(N)=O)NC(=O)[C@@H]1CCC(=O)N1)C(C)C)C(N)=O [Litorin],9.7%,
COc1ccc2nccc(C(=O)O)c2c1 [Quininic acid],33.4%,
C/C1=C\C(=O)c2c(C)coc2C/C(C)=C/CC1 [Furanodienone],8.4%,
C[C@]12CC[C@H]3[C@@H](CC[C@]4(O)C[C@@H](O)CC[C@]34C=O)[C@@]1(O)CC[C@@H]2C1=CC(=O)OC1 [Strophanthidin],42.5%,
COc1cc([C@H]2OC[C@H]3[C@@H]2CO[C@H]3c2ccc(O)c(OC)c2)ccc1O [Pinoresinol],13.6%,

SMILES,229E Inhibition rate,"229E Inhibition rate (229E Inhibition rate, 24 h)"
"CC(=O)c1ccc(O)c(O)c1 [3',4'-Dihydroxyacetophenone]",12.4%,
CC[C@H]1C[C@@H]2CN3CCc4c([nH]c5ccccc45)[C@](C(=O)OC)(C2)[C@H]13 [Coronaridine],41.8%,
COC(=O)[C@@H]1[C@H]2C[C@H]3c4[nH]c5ccccc5c4CCN3C[C@@H]2CC[C@@H]1O [Yohimbine (Hydrochloride)],,36%
COc1cc(O)c(C(=O)/C=C/c2ccc(O)cc2)c(OC)c1 [Flavokawain C],0%,
COc1cccc(CCC(=O)O)c1 [3-(3-Methoxyphenyl)propionic acid],21.4%,
COC(=O)C1=CO[C@@H](C)[C@H]2CN3CCc4c([nH]c5ccccc45)[C@@H]3C[C@H]12 [Ajmalicine],55.3%,
OCc1ccccc1O[C@@H]1O[C@H](CO)[C@@H](O)[C@H](O)[C@H]1O [Salicin],0%,
CN1[C@@H]2CC(O)C[C@H]1[C@@H]1O[C@@H]12 (stereo partly shown) [Scopine],42%,
C=C1CC[C@@H]2[C@](C)(CO)[C@H](O)CC[C@@]2(C)[C@@H]1C/C=C1/C(=O)OC[C@H]1O [Andrographolide],0%,
CC(C)[C@H](NC(=O)[C@H](CC(=O)O)NC(=O)[C@H](CCCCN)NC(=O)[C@@H](N)CCCN=C(N)N)C(=O)N[C@@H](Cc1ccc(O)cc1)C(=O)O [Thymopentin] (H-RKDVY-OH),,21.6%
O=C[C@H](O)[C@@H](O)[C@@H](O)[C@H](O)C(=O)O [D-Galacturonic acid (hydrate)],6.7%,
CC1(C)CC[C@]2(C(=O)O[C@@H]3O[C@H](CO)[C@@H](O)[C@H](O)[C@H]3O)CC[C@]3(C)C(=CC[C@@H]4[C@@]5(C)CC[C@H](O[C@@H]6O[C@H](C(=O)O)[C@@H](O)[C@H](O)[C@H]6O[C@@H]6O[C@H](CO)[C@@H](O)[C@H](O)[C@H]6O)C(C)(C)[C@@H]5CC[C@]43C)[C@@H]2C1 [Ginsenoside Ro],14.3%,
Oc1ccc([C@H]2Oc3cc(O)cc(O)c3C[C@H]2O)cc1 [(-)-Epiafzelechin],11.8%,
COc1cc(-c2oc3cc(O)cc(O)c3c(=O)c2O)ccc1O [Isorhamnetin],7.4%,
O=c1ccn([C@@H]2O[C@H](CO)[C@@H](O)[C@@H]2O)c(=O)[nH]1 [1-beta-D-Arabinofuranosyluracil],21.8%,
"O=C(O[C@@H]1Cc2c(O)cc(O)cc2O[C@@H]1c1cc(O)c(=O)c2c(O)c(O)cc([C@H]3Oc4cc(O)cc(O)c4C[C@H]3OC(=O)c3cc(O)c(O)c(O)c3)c2c1)c1cc(O)c(O)c(O)c1 [Theaflavin 3,3'-digallate]",9.8%,
COc1cccc2c1C(=O)c1c(O)c3c(c(O)c1C2=O)C[C@@](O)(C(C)=O)C[C@@H]3O[C@H]1C[C@H](N)[C@H](O)[C@H](C)O1 [Daunorubicin (hydrochloride)],2.9%,
Oc1cc(O)c2c(c1)O[C@H](c1ccc(O)c(O)c1)[C@H](O)[C@H]2c1c(O)cc(O)c2c1O[C@H](c1ccc(O)c(O)c1)[C@H](O)C2 [Procyanidin B2],13.1%,
CC(C)=CCC/C(C)=C/C=O [Citral],47.4%,
COC(=O)[C@H]1[C@H]2C[C@@H]3c4[nH]c5cc(OC)ccc5c4CCN3C[C@H]2C[C@@H](OC(=O)c2cc(OC)c(OC)c(OC)c2)[C@@H]1OC [Reserpine (hydrochloride)],,6.8%
CC1(C)[C@@H](O)CC[C@]2(C)[C@H]3CC=C4[C@@H]5C[C@@]6(C)C[C@H](OC6=O)[C@]5(C)CC[C@@]4(C)[C@]3(C)CC[C@@H]12 [Wilforlide A],6.1%,

SMILES,229E Inhibition rate,"229E Inhibition rate (229E Inhibition rate, 24 h)"
COc1c2c(cc3oc(CO)cc(=O)c13)O[C@H](C(C)(C)O)C2 [Cimifugin],8.3%,
NCC(O)CCC(N)C(=O)O (racemic) [DL-5-Hydroxylysine (hydrochloride)],12.9%,
O=C(/C=C/c1ccc(O)cc1)c1ccc(O)cc1O [Isoliquiritigenin],0%,
O=C(/C=C/c1ccc(O)c2oc(-c3ccc(O)c(O)c3)cc12)O[C@H](Cc1ccc(O)c(O)c1)C(=O)O [Salvianolic acid C],23.8%,
COc1cc2ccc(=O)oc2cc1O[C@@H]1O[C@H](CO)[C@@H](O)[C@H](O)[C@H]1O [Scopolin],11.6%,
OCc1c[nH]c2ccccc12 [Indole-3-carbinol],7.2%,
N[C@@H](Cc1c[nH]c2ccccc12)C(=O)O [L-Tryptophan],23%,
C[C@@H]1[C@H]2c3cc4c(cc3O[C@@]35OCOC3=CC(=O)[C@H](C[C@H]1C)[C@@H]25)OCO4 [Sauchinone],0%,
CC(O)Cn1cnc2c1c(=O)n(C)c(=O)n2C (stereo not shown) [Proxyphylline],10.5%,
CCC(C(=O)O)C(=O)O [Ethylmalonic acid],44.3%,
CCCCCCCC/C=C\CCCCCCCC(N)=O [Oleamide],41.1%,
"CC(=O)c1ccc(O)cc1O [2',4'-Dihydroxyacetophenone]",48.3%,
"CC(C)(C)c1cc(O)cc(C(C)(C)C)c1 [3,5-Di-tert-butylphenol]",12.6%,
CC(=O)CCCC(C)CCCC(C)CCCC(C)C (stereo not shown) [Hexahydrofarnesyl acetone],10.1%,
CN(C)CC(=O)O [N-Methylsarcosine],11.2%,
CC(C)(O)[C@@H]1CC[C@](C)([C@H]2[C@@H](O)C[C@@]3(C)[C@@H]4C[C@H](O)[C@H]5C(C)(C)[C@@H](O[C@@H]6OC[C@@H](O)[C@H](O)[C@H]6O[C@@H]6O[C@H](CO)[C@@H](O)[C@H](O)[C@H]6O)CC[C@@]56C[C@@]46CC[C@]23C)O1 [Astragaloside III],10.8%,
O=C(/C=C/c1ccc(O)c(O)c1)O[C@@H]1C[C@](O)(C(=O)O)C[C@@H](OC(=O)/C=C/c2ccc(O)c(O)c2)[C@H]1O [Isochlorogenic acid A],23.1%,
CCCCCCCC/C=C\CCCCCCCC(=O)OCC(O)CO (stereo not shown) [Monoolein],25.9%,
C=C(C)[C@@H]1CC[C@]2(C(=O)O)CC[C@]3(C)[C@H](CC[C@@H]4[C@@]5(C)CC[C@H](OC(=O)CC(C)(C)C(=O)O)C(C)(C)[C@@H]5CC[C@]43C)[C@@H]12 [Bevirimat],18.7%,
